{"source": "patent US20240216454A1", "about": "“METHOD FOR TREATING DERMATITIS AND PHARMACEUTICAL COMPOSITION FOR TREATING DERMATITIS CONTAINING AN ADENOSTEMMA LAVENIA EXTRACT” (Industrial Technology Research Institute, priority 2022, published 2024)", "tested_on": "NC/Nga mice with Dermatophagoides farina body-induced atopic dermatitis", "assay": "Atopic dermatitis model in NC/Nga mice (Dermatophagoides farina body ointment)", "type": "in vivo", "note": "For at least one compound, name, drawing or mass did not settle the structure.", "data": [{"smiles": "CC[C@@H]1CN(C(=O)NCC(F)(F)F)C[C@@H]1c1cnc2cnc3[nH]ccc3n12", "note": "[upadacitinib]", "values": [{"measurement": "clinical appearance and skin damage of the dorsal skin on the day of sacrifice", "setting": "1, 3 or 10 mg/kg orally every day, Day 42, FIG. 10C", "result": "significant improvement and dose effect were still maintained"}, {"measurement": "clinical appearance and skin damage of the dorsal skin during the experiment", "setting": "1, 3 or 10 mg/kg orally every day, weekly scoring, FIG. 10B", "result": "significantly improving"}, {"measurement": "epidermal thickness of the dorsal skin", "setting": "1-10 mg/kg oral, FIG. 13", "result": "significantly improving"}, {"measurement": "inflammation (histopathology, dorsal skin)", "setting": "1-10 mg/kg oral, FIG. 14A", "result": "reducing"}, {"measurement": "necrosis (histopathology, dorsal skin)", "setting": "1-10 mg/kg oral, FIG. 14B", "result": "reducing"}, {"measurement": "hyperplasia (histopathology, dorsal skin)", "setting": "1-10 mg/kg oral, FIG. 14C", "result": "reducing"}, {"measurement": "hyperkeratosis (histopathology, dorsal skin)", "setting": "1-10 mg/kg oral, FIG. 14D", "result": "reducing"}, {"measurement": "total pathological damage (dorsal skin)", "setting": "1-10 mg/kg oral, FIG. 14E", "result": "reducing"}, {"measurement": "blood IgE concentration", "setting": "1-10 mg/kg orally every day, Day 42, vs vehicle, FIG. 8", "result": "has the same effect"}]}]}
